The results in this text go back to publication PMC12260538.

The test deals with T1, STING (stimulator of interferon genes) (mouse (endogenous in lung tissue)) (UniProt Q3TBT3).
T1 sequence: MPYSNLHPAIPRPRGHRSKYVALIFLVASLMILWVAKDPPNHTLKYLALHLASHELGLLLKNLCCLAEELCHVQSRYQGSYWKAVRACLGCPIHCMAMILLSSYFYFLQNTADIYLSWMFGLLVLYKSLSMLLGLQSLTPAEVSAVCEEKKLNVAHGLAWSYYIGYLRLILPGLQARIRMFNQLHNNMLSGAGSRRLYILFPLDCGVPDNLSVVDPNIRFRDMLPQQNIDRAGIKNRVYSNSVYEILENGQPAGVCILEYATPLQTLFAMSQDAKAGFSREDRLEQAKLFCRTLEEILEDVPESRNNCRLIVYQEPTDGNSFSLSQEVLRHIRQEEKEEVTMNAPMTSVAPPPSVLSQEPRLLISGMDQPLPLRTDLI
Kind of test: co-IP; lung tissue lysates of mice of the Control and PR8 groups; mild lysis buffer (20 mM Tris/HCl pH 7.6, 150 mM NaCl, 20 mM KCl, 1.5 mM MgCl2, 0.5% NP-40); anti-STING, anti-GSDMD or normal IgG on Protein A/G beads, overnight at 4°C; washed with TBST 0.1% Tween 20; immunoblot.

Results are given in words; binding and its absence hold for the method and conditions named. In cells and extracts the contact can be indirect. Some results given as binding are weak or reduced against the parent protein; the word gives no strength.

B1: gasdermin D (GSDMD) (protein, UniProt Q9D8T2 1-487)
chain: MPSAFEKVVKNVIKEVSGSRGDLIPVDSLRNSTSFRPYCLLNRKFSSSRFWKPRYSCVNLSIKDILEPSAPEPEPECFGSFKVSDVVDGNIQGRVMLSGMGEGKISGGAAVSDSSSASMNVCILRVTQKTWETMQHERHLQQPENKILQQLRSRGDDLFVVTEVLQTKEEVQITEVHSQEGSGQFTLPGALCLKGEGKGHQSRKKMVTIPAGSILAFRVAQLLIGSKWDILLVSDEKQRTFEPSSGDRKAVGQRHHGLNVLAALCSIGKQLSLLSDGIDEEELIEAADFQGLYAEVKACSSELESLEMELRQQILVNIGKILQDQPSMEALEASLGQGLCSGGQVEPLDGPAGCILECLVLDSGELVPELAAPIFYLLGALAVLSETQQQLLAKALETTVLSKQLELVKHVLEQSTPWQEQSSVSLPTVLLGDCWDEKNPTWVLLEECGLRLQVESPQVHWEPTSLIPTSALYASLFLLSSLGQKPC
As for B1, the binding result was “binds”.
